# Some of the results follow.
# Legend:
# Assay in all cases: glycan array binding signal (z-score within array); higher = stronger binding
# Conditions in all cases: glycan notation: IUPAC condensed, linker removed
# [1] = biological target: Neu5Ac(a2-8)Neu5Ac
# Summary of the method: (§1)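 Columns mapping to the same glycan were averaged after glycan names were converted to IUPAC-condensed notation. The data come from 3228 arrays in the Consortium for Functional Glycomics database, limited to those with an available protein sequence. Binding is reported as a within-array Z-score averaged across arrays of one protein sequence and across linkers.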
# [2] = biological target: Neu5Ac(a2-8)Neu5Ac(a2-3)Gal(b1-3)GalNAc(b1-4)[Neu5Ac(a2-3)]Gal(b1-4)Glc
# Summary of the method: as §1
# [3] = biological target: Neu5Ac(a2-8)Neu5Ac(a2-3)Gal(b1-3)GalNAc(b1-4)[Neu5Ac(a2-8)Neu5Ac(a2-3)]Gal(b1-4)Glc
# Summary of the method: as §1
# [4] = biological target: Neu5Ac(a2-8)Neu5Ac(a2-3)Gal(b1-4)Glc
# Summary of the method: as §1
# [5] = biological target: Neu5Ac(a2-8)Neu5Ac(a2-3)Gal(b1-4)GlcNAc
# Summary of the method: as §1
# [6] = biological target: Neu5Ac(a2-8)Neu5Ac(a2-3)[Gal(b1-3)GalNAc(b1-4)]Gal(b1-4)Glc
# Summary of the method: as §1
# [7] = biological target: Neu5Ac(a2-8)Neu5Ac(a2-3)[GalNAc(b1-4)]Gal(b1-4)Glc
# Summary of the method: as §1
# [8] = biological target: Neu5Ac(a2-8)Neu5Ac(a2-8)Neu5Ac
# Summary of the method: as §1
# [9] = biological target: Neu5Ac(a2-8)Neu5Ac(a2-8)Neu5Ac(a2-3)Gal(b1-4)Glc
# Summary of the method: as §1
# [10] = biological target: Neu5Ac(a2-8)Neu5Ac(a2-8)Neu5Ac(a2-3)[Gal(b1-3)GalNAc(b1-4)]Gal(b1-4)Glc
# Summary of the method: as §1
# [11] = biological target: Neu5Ac(a2-8)Neu5Ac(a2-8)Neu5Ac(a2-3)[GalNAc(b1-4)]Gal(b1-4)Glc
# Summary of the method: as §1
# [12] = biological target: Neu5Ac(a2-8)Neu5Ac(a2-8)Neu5Ac(a2-8)Neu5Ac(a2-3)[GalNAc(b1-4)]Gal(b1-4)Glc
# Summary of the method: as §1
# [13] = biological target: Neu5Ac(a2-8)Neu5Gc(a2-3)Gal(b1-4)GlcNAc
# Summary of the method: as §1
# [14] = biological target: Neu5Ac(b2-6)Gal(b1-4)GlcNAc
# Summary of the method: as §1
# [15] = biological target: Neu5Ac(b2-6)GalNAc
# Summary of the method: as §1
# [16] = biological target: Neu5Ac9Ac(a2-3)Gal(b1-4)GlcNAc
# Summary of the method: as §1
# [17] = biological target: Neu5Ac9Ac(a2-6)Gal(b1-4)GlcNAc
# Summary of the method: as §1
# [18] = biological target: Neu5Gc(a2-3)Gal(b1-3)GlcNAc
# Summary of the method: as §1
# [19] = biological target: Neu5Gc(a2-3)Gal(b1-3)[Fuc(a1-4)]GlcNAc
# Summary of the method: as §1
# [20] = biological target: Neu5Gc(a2-3)Gal(b1-4)Glc
# Summary of the method: as §1
# [21] = biological target: Neu5Gc(a2-3)Gal(b1-4)GlcNAc
# Summary of the method: as §1
# [22] = biological target: Neu5Gc(a2-3)Gal(b1-4)GlcNAc(b1-3)Gal(b1-4)GlcNAc(b1-2)Man(a1-3)[Neu5Gc(a2-3)Gal(b1-4)GlcNAc(b1-3)Gal(b1-4)GlcNAc(b1-2)Man(a1-6)]Man(b1-4)GlcNAc(b1-4)GlcNAc
# Summary of the method: as §1
# [23] = biological target: Neu5Gc(a2-3)Gal(b1-4)[Fuc(a1-3)]GlcNAc
# Summary of the method: as §1
# [24] = biological target: Neu5Gc(a2-6)Gal(b1-4)GlcNAc
# Summary of the method: as §1
# [25] = biological target: Neu5Gc(a2-6)GalNAc
# Summary of the method: as §1
# [26] = biological target: Neu5Gc(a2-8)Neu5Ac(a2-3)Gal(b1-4)GlcNAc
# Summary of the method: as §1
# [27] = biological target: Neu5Gc(a2-8)Neu5Gc(a2-3)Gal(b1-4)GlcNAc
# Summary of the method: as §1
# [28] = biological target: Neu5Gc(a2-8)Neu5Gc(a2-3)Gal(b1-4)GlcNAc(b1-3)Gal(b1-4)GlcNAc
# Summary of the method: as §1
# [29] = biological target: Neu5Gc(a2-8)Neu5Gc(a2-6)Gal(b1-4)GlcNAc
# Summary of the method: as §1
# [30] = biological target: Neu5Gc(b2-6)Gal(b1-4)GlcNAc
# Summary of the method: as §1
binder,measurement,setting,value
Pbx2CASH domain (Cryptococcus neoformans) (protein) GIPGPNRLYRLSGPIIFTAADQEIATYGYPTGSERAVLRVEGRNTATAIQGDCRRCARVSVKNLVVDGNRKKLGRMRDFQLATGLVVLGGNEGQSIQNSWIKNPRGFTAIHIREGDKLQCSGARVEKNEIGPVGEEYDPEKDGDDPEMSPLGRPLADGVSIACRDSFIRDNTFRDNTDAAIVVYCSPGTLIHA,glycan array binding signal (z-score),[1],-0.046
same,glycan array binding signal (z-score),[2],0.156
same,glycan array binding signal (z-score),[3],-0.522
same,glycan array binding signal (z-score),[4],-0.837
same,glycan array binding signal (z-score),[5],-0.683
same,glycan array binding signal (z-score),[6],0.336
same,glycan array binding signal (z-score),[7],1.64
same,glycan array binding signal (z-score),[8],0.505
same,glycan array binding signal (z-score),[9],0.223
same,glycan array binding signal (z-score),[10],-0.408
same,glycan array binding signal (z-score),[11],3.58
same,glycan array binding signal (z-score),[12],0.464
same,glycan array binding signal (z-score),[13],-0.756
same,glycan array binding signal (z-score),[14],-0.444
same,glycan array binding signal (z-score),[15],-0.435
same,glycan array binding signal (z-score),[16],-1.03
same,glycan array binding signal (z-score),[17],-0.882
same,glycan array binding signal (z-score),[18],-0.376
same,glycan array binding signal (z-score),[19],-0.403
same,glycan array binding signal (z-score),[20],-0.382
same,glycan array binding signal (z-score),[21],-0.685
same,glycan array binding signal (z-score),[22],-0.28
same,glycan array binding signal (z-score),[23],-0.626
same,glycan array binding signal (z-score),[24],-0.551
same,glycan array binding signal (z-score),[25],-0.748
same,glycan array binding signal (z-score),[26],-0.526
same,glycan array binding signal (z-score),[27],-0.377
same,glycan array binding signal (z-score),[28],-0.296
same,glycan array binding signal (z-score),[29],-0.047
same,glycan array binding signal (z-score),[30],0.198

# An excerpt of these results, bar-delimited.
binder | measurement | setting | value
Pbx2CASH domain (Cryptococcus neoformans) (protein) GIPGPNRLYRLSGPIIFTAADQEIATYGYPTGSERAVLRVEGRNTATAIQGDCRRCARVSVKNLVVDGNRKKLGRMRDFQLATGLVVLGGNEGQSIQNSWIKNPRGFTAIHIREGDKLQCSGARVEKNEIGPVGEEYDPEKDGDDPEMSPLGRPLADGVSIACRDSFIRDNTFRDNTDAAIVVYCSPGTLIHA | glycan array binding signal (z-score) | [20] | -0.382
same | glycan array binding signal (z-score) | [21] | -0.685

# — the supplement of paper PMC8728848
